Tested on: male fosTRAP2×Ai14 mice
Assay: Two-bottle choice (water vs 20% ethanol) drinking after ethanol exposure
Type: in vivo
Conditions: planned contrast across follow-up; LSD 50 ug/kg or BOL-148 3.0 mg/kg IP
Excerpt: Twenty-five adult (12-30-week old), male fosTRAP2×Ai14 mice were bred in-house. Generation of the fosTRAP2 and FosTRAP lines were previously described (Guenthner, et al.). fosTRAP2 mice were crossed with Ai14 mice to obtain the mice used in this study. Mice were single-housed on a reverse light-dark cycle and given unlimited access to standard mouse chow and water. Animals were given a week to habituate to single housing, after which they were given free access to 2 bottles containing water and 20% ethanol for 24-hour periods beginning at the start of their dark cycle, 5 days per week (Monday-Friday) for 4 weeks (ethanol exposure). Amount of water and ethanol consumed (by volume and weight) were measured for each mouse across the final 5 days of the ethanol exposure period, and ethanol preference was counterbalanced across treatment group by the mean ethanol preference by weight (corrected for body weight) during this period.
Following 4 weeks of ethanol exposure, animals were administered one of 3 treatments via a single intraperitoneal injection 10 minutes prior to onset of the dark cycle/day one in a five-day cycle of alcohol exposure: saline, LSD 50 ug/kg, or BOL-148 3.0 mg/kg. […] Amount of water and ethanol consumed (by volume and weight) were measured daily at the end of the light cycle. […]

Compound	total fluid consumption, mean difference Saline vs. treatment
CCN(CC)C(=O)[C@@H]1C=C2c3cccc4[nH]cc(c34)C[C@H]2N(C)C1 [LSD, lysergic acid diethylamide]	0.167 mg total fluid consumed/mg of body weight
CCN(CC)C(=O)[C@@H]1C=C2c3cccc4[nH]c(Br)c(c34)C[C@H]2N(C)C1 [BOL-148, 2-bromo-lysergic acid diethylamide]	0.086 mg total fluid consumed/mg of body weight

Reference: patent US20250367189A1, “2-BROMO-LYSERGIC ACID DI[…] SUBSTANCE ABUSE” (Ceruvia Lifesciences LLC, priority 2020, published 2025)
